Several values for one entry are separate records, joined by “and”; a condition that tells them apart may be missing. Identical values can stand only once. The list shows a part of the results. The main result of the screen is listed elsewhere. These columns were measured beside it and carry no call. The list favours compounds with an active or inconclusive main result. Words in brackets tell the shape of the fitted curve; partial curves, single points and poor fits give uncertain potencies.
Assay: qHTS Assay for Lipid Storage Modulators in Drosophila S3 Cells;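 as to cell number change: cells counted by Cell Tracker Red CMTPX staining in the red channel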
Conditions: BODIPY lipid droplet fluorescence, 18-24 h; for cell number change: measured here: cell count max response, cells fed with added oleic acid
Summary of the method: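 Drosophila S3 cells loaded with oleic acid (400 uM, as added) and compounds at several concentrations; lipid droplets imaged by 488-nm laser-scanning cytometry, 500–530 nm intensity and object ratio to cell channel. Percent activity normalized to 20 uM Triacsin C.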

[1] = measured here: lipid fluorescence (Fed channel) AC50, cells fed with added oleic acid
[2] = measured here: cell number channel AC50, cells fed with added oleic acid

Row | SMILES | AC50 [1] | cell number change | AC50 [2]
1 | CN(C(=O)COC(=O)c1cccc(NS(=O)(=O)c2ccc(F)c(F)c2)c1)C1CCS(=O)(=O)C1 (stereo not given) | 0.58 µM [rising, single point] |  | 
2 | COc1ccc(N=c2scc(-c3ccc(OC)cc3)n2CCO)cc1 | 20.6 µM [falling, single point] | -32.1% | 16.4 µM [falling, single point]
3 | Cc1ccc(Nc2nc(N)nc(CN3CCc4ccccc4C3)n2)cc1 | 10.3 µM [rising, partial curve] | 110% | 18.4 µM [rising, single point]
4 | CCN1CCN(S(=O)(=O)c2ccc(Cl)c(C(=O)N(CC)CC(=O)Nc3ccc(OC)cc3)c2)CC1 | 2.59 µM [rising, single point] | -9.19% | 
5 | COc1cc(-c2[nH]ncc2CN2CCN(c3cccc(C)n3)CC2)cc(OC)c1OC |  | -25.2% | 
6 | CCCN1Cc2cccc(C(=O)Nc3ccc(CC)cc3)c2C1=O | 0.651 µM [rising, partial curve, poor fit] |  | 0.82 µM [rising, full curve]
7 | COc1ccc2c(c1OC)C(=O)OC2C1c2c(cc3c(c2OC)OCO3)CCN1C (stereo not given) | 16.4 µM [rising, single point] and 2.31 µM [rising, partial curve] | 21.4% and 25.7% | 
8 | CCOC(=O)c1sc2cc([N+](=O)[O-])cc(SCC(C)C)c2c1N | 2.31 µM [falling, full curve, poor fit] | -18.5% | 1.64 µM [falling, single point]
9 | Cc1ccc(S(=O)(=O)NC(=O)COc2cc(C)ccc2C(C)C)cc1 | 29.1 µM [falling, single point] |  | 
10 | COc1cccc(/C=C/C(=O)OCC(=O)NCC2CCCCC2)c1OC |  | -32.8% | 20.6 µM [falling, single point]
11 | COc1ccc(C(=O)Nc2ccccc2C(=O)N2CCCCCC2)cc1 | 3.98 µM [falling, full curve] | 22.4% | 
12 | Cc1nn(C)c(C(=O)NNC(=O)NC2CCCCC2)c1Cl |  | -18.2% | 
13 | CC(CCN1C(Nc2ccccc2)=NC[C@@H]1Cc1ccccc1)c1ccccc1 (stereo not given in full) | 0.231 µM [falling, partial curve] | 5.99% | 
14 | O=C1CCc2cc(S(=O)(=O)Nc3ccc(F)cc3)cc3c2N1CC3 |  | 12.1% | 
15 | CC(=O)Nc1cccc(Oc2cc(C#N)c(C#N)cc2N2CCOCC2)c1 | 20.6 µM [falling, partial curve, poor fit] | -16.5% | 
16 | COC(=O)[C@H]1[C@H]2C[C@H]3c4[nH]c5ccccc5c4CCN3C[C@@H]2CC[C@@H]1O | 6.51 µM [rising, single point] | 4.92% | 

— PubChem BioAssay AID2685 (National Center for Advancing Translational Sciences (NCATS), 2010)
